From the supplement of paper PMC10849652
Some of the results follow. Residues, ends and D or L forms follow the SMILES beside them. *: point of attachment. Cbz = O=C(OCc1ccccc1)*

Protein sequences, listed by entry. Tags and fused reporters are not part of them. Lines headed by an entry give the natural chain unless they say otherwise; changes in a name come on top.
UniProt Q9Y6I7: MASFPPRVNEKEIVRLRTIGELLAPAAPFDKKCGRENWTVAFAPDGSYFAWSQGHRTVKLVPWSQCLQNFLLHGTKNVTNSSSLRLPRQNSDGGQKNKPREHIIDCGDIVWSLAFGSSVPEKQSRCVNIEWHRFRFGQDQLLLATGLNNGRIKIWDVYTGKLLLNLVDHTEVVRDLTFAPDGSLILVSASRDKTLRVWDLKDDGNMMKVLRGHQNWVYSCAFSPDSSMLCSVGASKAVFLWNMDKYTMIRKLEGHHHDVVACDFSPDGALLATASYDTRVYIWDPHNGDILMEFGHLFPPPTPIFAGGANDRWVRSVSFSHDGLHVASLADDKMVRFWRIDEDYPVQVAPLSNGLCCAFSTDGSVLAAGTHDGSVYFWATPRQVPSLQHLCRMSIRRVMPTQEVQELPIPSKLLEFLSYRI
UniProt P40337, whole entry, looked up: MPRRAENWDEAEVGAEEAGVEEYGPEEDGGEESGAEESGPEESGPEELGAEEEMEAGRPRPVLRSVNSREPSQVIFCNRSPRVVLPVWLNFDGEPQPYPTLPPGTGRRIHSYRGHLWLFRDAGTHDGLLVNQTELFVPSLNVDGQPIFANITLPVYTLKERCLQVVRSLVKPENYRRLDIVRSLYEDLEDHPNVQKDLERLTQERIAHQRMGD
UniProt Q9NZC7: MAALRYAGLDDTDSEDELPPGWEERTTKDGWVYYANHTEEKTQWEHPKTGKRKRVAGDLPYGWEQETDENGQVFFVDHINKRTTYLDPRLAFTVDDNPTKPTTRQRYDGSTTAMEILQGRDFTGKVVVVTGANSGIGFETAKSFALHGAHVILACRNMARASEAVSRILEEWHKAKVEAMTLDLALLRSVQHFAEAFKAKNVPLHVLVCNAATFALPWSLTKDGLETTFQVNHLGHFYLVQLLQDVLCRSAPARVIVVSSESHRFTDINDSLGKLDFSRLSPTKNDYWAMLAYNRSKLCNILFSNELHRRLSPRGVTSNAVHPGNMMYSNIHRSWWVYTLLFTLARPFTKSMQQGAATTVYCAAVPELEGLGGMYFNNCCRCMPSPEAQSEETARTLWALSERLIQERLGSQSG
UniProt Q9HCS7: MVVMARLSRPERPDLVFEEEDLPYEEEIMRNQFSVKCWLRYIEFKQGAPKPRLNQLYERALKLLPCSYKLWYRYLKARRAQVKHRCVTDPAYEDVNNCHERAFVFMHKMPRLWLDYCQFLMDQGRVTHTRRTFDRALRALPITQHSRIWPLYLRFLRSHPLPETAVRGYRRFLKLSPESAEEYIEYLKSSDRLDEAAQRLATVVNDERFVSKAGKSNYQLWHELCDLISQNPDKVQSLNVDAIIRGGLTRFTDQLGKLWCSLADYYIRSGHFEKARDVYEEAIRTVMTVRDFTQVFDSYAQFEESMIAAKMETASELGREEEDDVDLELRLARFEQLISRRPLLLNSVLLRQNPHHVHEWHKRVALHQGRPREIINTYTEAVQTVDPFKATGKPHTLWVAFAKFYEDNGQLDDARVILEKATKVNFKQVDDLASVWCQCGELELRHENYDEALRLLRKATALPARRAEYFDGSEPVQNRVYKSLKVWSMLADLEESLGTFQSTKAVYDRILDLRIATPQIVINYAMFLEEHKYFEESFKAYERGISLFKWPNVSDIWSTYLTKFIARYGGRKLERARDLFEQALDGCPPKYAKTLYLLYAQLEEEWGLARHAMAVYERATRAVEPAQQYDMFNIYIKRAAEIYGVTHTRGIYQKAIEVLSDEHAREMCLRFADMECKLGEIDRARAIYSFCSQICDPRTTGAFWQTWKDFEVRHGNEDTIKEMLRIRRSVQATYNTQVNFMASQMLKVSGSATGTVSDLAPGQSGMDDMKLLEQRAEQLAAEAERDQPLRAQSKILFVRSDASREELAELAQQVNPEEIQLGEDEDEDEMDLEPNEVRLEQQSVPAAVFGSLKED
UniProt Q9H7M9, whole entry, looked up: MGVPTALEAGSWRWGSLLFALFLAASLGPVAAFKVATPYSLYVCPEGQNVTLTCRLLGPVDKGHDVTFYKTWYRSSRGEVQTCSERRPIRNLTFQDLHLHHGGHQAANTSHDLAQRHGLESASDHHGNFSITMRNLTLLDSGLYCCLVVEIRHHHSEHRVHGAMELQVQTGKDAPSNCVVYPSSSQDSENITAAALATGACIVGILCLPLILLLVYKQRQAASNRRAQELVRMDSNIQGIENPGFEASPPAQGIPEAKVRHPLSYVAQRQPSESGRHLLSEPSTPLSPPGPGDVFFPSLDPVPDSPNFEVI
UniProt Q8NEZ3: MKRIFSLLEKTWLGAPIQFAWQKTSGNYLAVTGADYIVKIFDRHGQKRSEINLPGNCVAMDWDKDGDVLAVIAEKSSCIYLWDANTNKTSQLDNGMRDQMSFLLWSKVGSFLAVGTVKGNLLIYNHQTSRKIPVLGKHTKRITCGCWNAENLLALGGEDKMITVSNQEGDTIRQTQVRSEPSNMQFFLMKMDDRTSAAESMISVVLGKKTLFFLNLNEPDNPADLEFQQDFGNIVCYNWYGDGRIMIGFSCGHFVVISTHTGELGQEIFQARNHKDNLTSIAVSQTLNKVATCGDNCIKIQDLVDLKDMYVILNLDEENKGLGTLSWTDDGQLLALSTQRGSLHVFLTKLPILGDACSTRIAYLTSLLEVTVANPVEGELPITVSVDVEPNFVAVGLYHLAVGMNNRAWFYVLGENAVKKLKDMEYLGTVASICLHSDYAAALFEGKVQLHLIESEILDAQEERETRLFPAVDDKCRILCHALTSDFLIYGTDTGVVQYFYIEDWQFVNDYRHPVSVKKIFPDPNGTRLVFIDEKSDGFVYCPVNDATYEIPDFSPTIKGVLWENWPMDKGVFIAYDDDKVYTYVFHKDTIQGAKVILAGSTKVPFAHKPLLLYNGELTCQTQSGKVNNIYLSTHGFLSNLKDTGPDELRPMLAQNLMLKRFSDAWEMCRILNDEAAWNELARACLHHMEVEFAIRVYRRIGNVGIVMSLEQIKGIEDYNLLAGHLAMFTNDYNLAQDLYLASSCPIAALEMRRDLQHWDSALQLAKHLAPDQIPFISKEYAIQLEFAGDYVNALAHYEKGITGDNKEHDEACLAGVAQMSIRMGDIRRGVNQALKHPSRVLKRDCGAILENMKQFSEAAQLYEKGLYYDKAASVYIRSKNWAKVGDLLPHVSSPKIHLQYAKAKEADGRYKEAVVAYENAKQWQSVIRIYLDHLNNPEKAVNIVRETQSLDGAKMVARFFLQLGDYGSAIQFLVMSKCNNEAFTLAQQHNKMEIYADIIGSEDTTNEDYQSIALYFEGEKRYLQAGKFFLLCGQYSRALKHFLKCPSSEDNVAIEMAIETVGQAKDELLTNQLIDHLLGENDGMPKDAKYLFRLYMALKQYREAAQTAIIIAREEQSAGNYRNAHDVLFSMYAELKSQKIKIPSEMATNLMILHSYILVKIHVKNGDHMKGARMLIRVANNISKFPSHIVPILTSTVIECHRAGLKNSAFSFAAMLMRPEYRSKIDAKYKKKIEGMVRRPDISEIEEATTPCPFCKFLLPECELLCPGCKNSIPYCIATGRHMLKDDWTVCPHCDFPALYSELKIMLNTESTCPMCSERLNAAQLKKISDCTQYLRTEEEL
UniProt Q8IWA0: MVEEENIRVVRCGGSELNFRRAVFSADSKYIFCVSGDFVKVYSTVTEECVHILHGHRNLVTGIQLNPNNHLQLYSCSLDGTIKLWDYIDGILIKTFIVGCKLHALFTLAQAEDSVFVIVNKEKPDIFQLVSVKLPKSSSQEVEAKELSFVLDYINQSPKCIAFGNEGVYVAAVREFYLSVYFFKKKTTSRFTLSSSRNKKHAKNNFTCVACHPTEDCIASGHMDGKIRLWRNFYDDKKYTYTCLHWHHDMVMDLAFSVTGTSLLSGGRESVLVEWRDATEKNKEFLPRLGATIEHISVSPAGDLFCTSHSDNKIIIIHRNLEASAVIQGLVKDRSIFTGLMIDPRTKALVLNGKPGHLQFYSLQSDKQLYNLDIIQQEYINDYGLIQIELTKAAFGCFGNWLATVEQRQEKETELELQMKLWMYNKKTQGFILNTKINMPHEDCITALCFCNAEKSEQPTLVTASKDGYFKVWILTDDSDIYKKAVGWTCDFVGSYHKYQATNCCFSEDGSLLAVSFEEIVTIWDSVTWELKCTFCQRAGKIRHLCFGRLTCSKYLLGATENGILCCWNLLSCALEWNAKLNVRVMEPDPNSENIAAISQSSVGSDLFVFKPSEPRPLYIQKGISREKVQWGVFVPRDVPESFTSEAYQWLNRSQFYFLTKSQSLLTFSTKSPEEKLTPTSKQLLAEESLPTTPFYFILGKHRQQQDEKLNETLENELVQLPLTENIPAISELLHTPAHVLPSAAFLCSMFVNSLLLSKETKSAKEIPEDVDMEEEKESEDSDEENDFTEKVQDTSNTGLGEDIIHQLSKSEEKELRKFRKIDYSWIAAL
UniProt Q562E7: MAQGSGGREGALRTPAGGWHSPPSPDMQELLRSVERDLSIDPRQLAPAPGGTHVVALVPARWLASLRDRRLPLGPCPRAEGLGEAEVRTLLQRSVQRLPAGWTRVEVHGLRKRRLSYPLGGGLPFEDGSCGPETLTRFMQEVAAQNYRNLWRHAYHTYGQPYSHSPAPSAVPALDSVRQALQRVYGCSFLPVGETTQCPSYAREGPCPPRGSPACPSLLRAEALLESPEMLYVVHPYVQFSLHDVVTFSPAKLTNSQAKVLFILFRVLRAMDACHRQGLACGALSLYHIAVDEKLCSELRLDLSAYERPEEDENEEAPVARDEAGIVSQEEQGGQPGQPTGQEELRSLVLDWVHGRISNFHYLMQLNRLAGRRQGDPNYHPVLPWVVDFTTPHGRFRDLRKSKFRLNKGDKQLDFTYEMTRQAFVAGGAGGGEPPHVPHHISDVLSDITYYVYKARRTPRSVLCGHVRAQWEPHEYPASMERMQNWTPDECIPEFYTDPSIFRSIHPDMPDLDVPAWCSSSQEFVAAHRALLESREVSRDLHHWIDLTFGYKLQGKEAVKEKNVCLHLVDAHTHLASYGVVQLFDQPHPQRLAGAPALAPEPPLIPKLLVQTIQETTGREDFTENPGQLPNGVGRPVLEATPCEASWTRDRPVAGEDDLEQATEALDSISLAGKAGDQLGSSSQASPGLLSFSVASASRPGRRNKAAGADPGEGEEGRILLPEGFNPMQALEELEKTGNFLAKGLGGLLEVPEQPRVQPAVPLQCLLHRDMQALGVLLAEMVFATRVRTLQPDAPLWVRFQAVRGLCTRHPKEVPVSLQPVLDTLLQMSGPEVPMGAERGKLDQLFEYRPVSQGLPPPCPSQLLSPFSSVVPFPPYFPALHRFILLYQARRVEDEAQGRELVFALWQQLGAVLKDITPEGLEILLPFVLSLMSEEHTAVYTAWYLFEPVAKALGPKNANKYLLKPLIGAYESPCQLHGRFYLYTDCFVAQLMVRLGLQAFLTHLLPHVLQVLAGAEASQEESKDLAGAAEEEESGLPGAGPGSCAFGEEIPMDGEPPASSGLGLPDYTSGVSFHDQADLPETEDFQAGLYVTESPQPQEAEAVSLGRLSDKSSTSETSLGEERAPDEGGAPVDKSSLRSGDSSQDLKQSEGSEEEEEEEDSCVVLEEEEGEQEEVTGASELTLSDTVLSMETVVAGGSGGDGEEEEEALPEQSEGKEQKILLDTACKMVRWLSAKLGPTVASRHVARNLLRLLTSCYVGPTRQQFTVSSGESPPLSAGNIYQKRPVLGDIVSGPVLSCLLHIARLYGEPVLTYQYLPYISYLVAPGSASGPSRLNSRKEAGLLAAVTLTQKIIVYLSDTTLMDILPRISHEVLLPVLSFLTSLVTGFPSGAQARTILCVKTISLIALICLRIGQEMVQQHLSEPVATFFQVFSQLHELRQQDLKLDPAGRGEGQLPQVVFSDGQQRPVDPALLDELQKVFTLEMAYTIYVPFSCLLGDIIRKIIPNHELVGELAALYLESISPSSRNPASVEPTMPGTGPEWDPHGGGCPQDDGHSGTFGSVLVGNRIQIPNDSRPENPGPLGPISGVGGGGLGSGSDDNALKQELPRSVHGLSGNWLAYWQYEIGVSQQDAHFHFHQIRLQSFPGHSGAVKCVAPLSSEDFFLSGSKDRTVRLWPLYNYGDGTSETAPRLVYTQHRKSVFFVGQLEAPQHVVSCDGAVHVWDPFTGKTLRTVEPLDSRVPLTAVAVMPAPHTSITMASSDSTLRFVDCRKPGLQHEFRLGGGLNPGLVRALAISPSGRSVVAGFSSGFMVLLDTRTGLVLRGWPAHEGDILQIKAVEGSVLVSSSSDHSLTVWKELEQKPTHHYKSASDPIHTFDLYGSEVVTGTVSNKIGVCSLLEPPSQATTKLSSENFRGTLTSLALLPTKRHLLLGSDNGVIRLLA

Key:
Assay in all cases: log2 fold change, soluble protein after heating vs DMSO (PISA); higher = thermal stabilisation; K562 cells, 10 uM, 30 min; active = over 0.2 and 3.5 SD of the protein, either way, in both replicates (recomputed)
[1] = compound: C1=CC(=C(C=C1Cl)C2=NC3=NC=CN=C3C(=N2)NC4=CC=NC=C4)F
Summary of the method: (§1)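 K562 cells at 2×10^6 cells/mL were given 10 μM compound for 30 min. Aliquots then went through 3 min of heating across 48°C-58°C, were pooled, and were extracted in PBS with 0.5% NP-40 at 4°C, and the supernatant after 21,000xg for 90 min was quantified by TMTpro 16plex LC-MS/MS with channel sums equalised. Thermal stability relative to control samples, from duplicates, is given as log2 fold change.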

[2] = compound: CC(C)(O)CC(=O)NCCn1ccc2ncnc(Nc3ccc(Oc4cccc(C(F)(F)F)c4)c(Cl)c3)c21
Summary of the method: as §1

[3] = compound: C1CCN(C1)C(=O)NC2=CC=CC(=C2)NC3=NC=C(C(=N3)NCCC4=CN=CN4)Br
Summary of the method: as §1

[4] = compound: C1CN(CCC1(CC2=CC=C(C=C2)Cl)N)C3=NC=NC4=C3C=CN4
Summary of the method: as §1

[5] = compound: CC1=C(C(CC(=O)N1)C2=CC=C(C=C2)C(F)(F)F)C(=O)NC3=C(C=C4C(=C3)C=NN4)F
Summary of the method: as §1

[6] = compound: CC1=C(C2=C(C=C1)C(=O)C3=CC=CC=C3N2CCCN)C
Summary of the method: as §1

[7] = compound: C/C(=N\NC(=O)C1=CC(=CC=C1)S(=O)(=O)N2CCOCC2)/C3=C(C=CC(=C3)Cl)O
Summary of the method: as §1

[8] = compound: C1=CC2=C(C=CC(=C2)/C=C\3/C(=O)NC(=NCC4=CC=CS4)S3)N=C1
Summary of the method: as §1

[9] = compound: C1=CC=C(C=C1)C2=NC(=C(N2)C3=CC=NC=C3)C4=CC(=C(C=C4)Cl)O
Summary of the method: as §1

[10] = compound: C1=CC=C2C(=C1)C3=NNC4=CC=CC(=C43)C2=O
Summary of the method: as §1

[11] = compound: CC(=O)c1cnc2ccc(-c3cc(Cl)c(O)c(Cl)c3)nc2c1N[C@H]1CC[C@H](CN(C)C)CC1
Summary of the method: as §1

[12] = compound: CC(C)(C)Cn1c(N)nc2ccc(-c3[nH]c(C(C)(C)C)nc3-c3ccc(F)cc3)nc21 [ralimetinib]
Summary of the method: as §1

[13] = compound: CC(C)C[C@@H](C=O)NC(=O)[C@H](CC(C)C)NC(=O)[C@H](CC(C)C)NC(=O)OCc1ccccc1
Summary of the method: as §1

[14] = compound: C#Cc1cccc(Nc2ncnc3cc(OCCOC)c(OCCOC)cc23)c1 [erlotinib]
Summary of the method: as §1

[15] = compound: C1=CC(=CC=C1C2=NC3=C(N2)C=C(C=C3)C(=O)N)OC4=CC=C(C=C4)Cl
Summary of the method: as §1

[16] = compound: CC(C)C1=C2N=C(C=C(N2N=C1)NCC3=CC=CC=C3)NCCCCCCN
Summary of the method: as §1

[17] = compound: C1COCCN1CCN2C3=CC=CC=C3N=C2NC(=O)C4=CC(=CC=C4)[N+](=O)[O-] [IRAK-1-4 Inhibitor I]
Summary of the method: as §1

[18] = compound: CC(C)N(C[C@H]1O[C@@H](n2cnc3c(N)ncnc32)[C@H](O)[C@@H]1O)[C@H]1C[C@@H](CCc2nc3cc(C(C)(C)C)ccc3[nH]2)C1 [pinometostat]
Summary of the method: as §1

[19] = compound: C1=CC2=NC=CN=C2C=C1/C=C/3\C(=O)NC(=O)S3
Summary of the method: as §1

[20] = compound: C=CC(=O)N1CCC[C@@H](n2nc(-c3ccc(Oc4ccccc4)cc3)c3c(N)ncnc32)C1 [ibrutinib]
Summary of the method: as §1

Measured: log2 fold change

WSB1 (UniProt Q9Y6I7)
inactive: [1] 0.067 | [2] -0.013

VLDLR (UniProt P98155)
inactive: [1] 0.037 | [3] -0.085 | [4] 0 | [2] 0.026 | [5] 0.136 | [6] 0.066

VHL (UniProt P40337)
inactive: [7] 0.118 | [8] -0.039 | [9] -0.002 | [10] 0.006 | [11] -0.012 | [12] 0.109 | [13] 0.132

WWOX (UniProt Q9NZC7)
inactive: [14] 0.167 | [15] -0.14 | [3] -0.389 | [4] 0.077 | [16] 0.064 | [6] 0.024

WWP2 (UniProt O00308)
inactive: [1] -0.238 | [17] -0.181 | [2] -0.16 | [18] 0.207

XAB2 (UniProt Q9HCS7)
inactive: [1] -0.223 | [9] 0.075 | [17] -0.036 | [12] 0.14 | [2] -0.138 | [13] -0.041 | [18] 0.181

WDR76 (UniProt Q9H967)
inactive: [7] -0.03 | [1] -0.418 | [8] -0.152 | [10] 0.034 | [11] -0.112 | [2] 0.11

Four neighbouring entries already listed, quoted:
VLDLR (UniProt P98155)
inactive: [1] 0.037 | [3] -0.085 | [4] 0 | [2] 0.026 | [5] 0.136 | [6] 0.066

VHL (UniProt P40337)
inactive: [7] 0.118 | [8] -0.039 | [9] -0.002 | [10] 0.006 | [11] -0.012 | [12] 0.109 | [13] 0.132

WWOX (UniProt Q9NZC7)
inactive: [14] 0.167 | [15] -0.14 | [3] -0.389 | [4] 0.077 | [16] 0.064 | [6] 0.024

WWP2 (UniProt O00308)
inactive: [1] -0.238 | [17] -0.181 | [2] -0.16 | [18] 0.207

(listing goes on)

WNK4 (UniProt Q96J92)
inactive: [7] -0.032 | [1] -0.036 | [8] 0.011 | [10] -0.049 | [3] -0.023 | [4] -0.034 | [11] -0.343 | [2] 0.154 | [6] 0.028

WDR46, A0A0G2JJL1
inactive: [14] -0.273 | [1] -0.741 | [15] -0.011 | [19] 0.027 | [3] 0.279 | [4] 0.114 | [17] -0.153 | [20] 0.054 | [2] 0.269 | [16] 0.003 | [18] 0.325 | [6] -0.353

VPS35, A0A1W2PP10
inactive: [1] 0.099 | [19] -0.001 | [3] -0.209 | [4] -0.11 | [17] 0.022 | [20] 0.085 | [2] -0.065 | [18] 0.128 | [5] 0.076 | [6] -0.05

VSIR (UniProt Q9H7M9)
inactive: [14] -0.002 | [1] -0.027 | [15] -0.045 | [19] 0.127 | [9] -0.061 | [17] 0.119 | [20] 0.007 | [12] -0.146 | [2] 0.03 | [16] 0.04 | [13] 0.024 | [18] 0.051 | [5] -0.006

WARS1 (UniProt G3V227)
inactive: [7] -0.08 | [1] 0.018 | [8] -0.159 | [19] 0.093 | [10] -0.178 | [3] 0.098 | [4] -0.089 | [20] 0.03 | [11] -0.022 | [2] 0.259 | [6] -0.048

WDR19 (UniProt Q8NEZ3)
inactive: [7] -0.16 | [8] 0.125 | [19] 0.041 | [9] 0.048 | [10] -0.15 | [3] -0.099 | [4] 0.2 | [20] -0.272 | [11] 0.026 | [12] -0.038 | [13] -0.057 | [6] -0.021

WDR75 (UniProt Q8IWA0)
inactive: [7] -0.256 | [1] -0.592 | [8] 0.306 | [19] 0.091 | [9] -0.063 | [10] 0.042 | [3] -0.193 | [4] 0.021 | [17] -0.081 | [20] -0.026 | [11] -0.196 | [12] 0.189 | [2] 0.012 | [13] 0.178 | [18] 0.197 | [6] 0.402

WDR81 (UniProt Q562E7)
inactive: [7] -0.058 | [1] -0.431 | [8] -0.094 | [19] 0.045 | [9] 0.074 | [10] -0.189 | [3] 0.231 | [4] -0.098 | [17] 0.036 | [20] -0.068 | [11] 0.059 | [12] 0.052 | [2] -0.01 | [13] 0.162 | [18] -0.013 | [5] 0.039 | [6] -0.165
